Assay results published in the supplement of paper PMC6078165.

System: MDAMB231
Assay: relative JC-1 red fluorescence (viability) vs pre-drug, coculture with fibroblast (fraction); higher = more viable cancer cells
Experimental: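 JC-1 labelled TNBC cells cocultured 1:1 (1,500 cells each) with CellTrace Violet stained primary or stromal fibroblasts in 384-well plates in FluoroBrite medium, treated with one of 42 anticancer drugs at 0.1, 1, 10 or 100 uM. JC-1 red fluorescence (mitochondrial integrity in cancer cells only) was read by plate reader every 8 h for 72 h. Values are normalised to each well's pre-drug value. The stock of one drug was tenfold lower, so its dose labels may be too high.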

CCc1c2c(nc3ccc(OC(=O)N4CCC(N5CCCCC5)CC4)cc13)-c1cc3c(c(=O)n1C2)COC(=O)[C@]3(O)CC [Irinotecan]
relative JC-1 red fluorescence
Details | 8 h | 16 h | 24 h | 32 h | 40 h | 48 h | 56 h | 64 h | 72 h
10 µM, coculture fibroblast: C12385 | 0.786 | 0.763 | 0.655 | 0.651 | 0.589 | 0.55 | 0.507 | 0.493 | 0.472
10 µM, coculture fibroblast: H6013 | 0.9114 | 0.873 | 0.848 | 0.84 | 0.8 | 0.77 | 0.759 | 0.741 | 0.704
10 µM, coculture fibroblast: H6019 | 0.846 | 0.824 | 0.765 | 0.766 | 0.724 | 0.697 | 0.662 | 0.644 | 0.601
10 µM, coculture fibroblast: H6076 | 0.908 | 0.852 | 0.827 | 0.812 | 0.79 | 0.766 | 0.752 | 0.753 | 0.752
10 µM, coculture fibroblast: H6231 | 0.9418 | 0.8679 | 0.843 | 0.817 | 0.787 | 0.763 | 0.72 | 0.709 | 0.688
10 µM, coculture fibroblast: HADF | 0.9021 | 0.8527 | 0.8259 | 0.7937 | 0.764 | 0.699 | 0.696 | 0.681 | 0.627
10 µM, coculture fibroblast: HCFa | 0.888 | 0.84664 | 0.8248 | 0.793 | 0.759 | 0.716 | 0.695 | 0.66 | 0.625
10 µM, coculture fibroblast: HCPF | 0.89227 | 0.818 | 0.789 | 0.791 | 0.751 | 0.72 | 0.682 | 0.654 | 0.63
10 µM, coculture fibroblast: HHSteC | 0.93 | 0.938 | 0.797 | 0.848 | 0.718 | 0.792 | 0.696 | 0.747 | 0.776
10 µM, coculture fibroblast: HMF | 0.9141 | 0.822 | 0.783 | 0.756 | 0.718 | 0.679 | 0.641 | 0.624 | 0.604
10 µM, coculture fibroblast: HPFa | 0.9478 | 0.913 | 0.862 | 0.812 | 0.786 | 0.74 | 0.6841 | 0.652 | 0.613
10 µM, coculture fibroblast: HUF | 0.884 | 0.7898 | 0.7804 | 0.674 | 0.601 | 0.569 | 0.52 | 0.509 | 0.489
10 µM, coculture fibroblast: Hs5 | 0.856 | 0.809 | 0.785 | 0.753 | 0.727 | 0.6873 | 0.674 | 0.657 | 0.6457
10 µM, coculture fibroblast: Hs27A | 0.9038 | 0.8598 | 0.8236 | 0.802 | 0.759 | 0.7014 | 0.717 | 0.702 | 0.663
10 µM, coculture fibroblast: Hs343T | 0.917 | 0.846 | 0.793 | 0.765 | 0.712 | 0.665 | 0.621 | 0.586 | 0.562
10 µM, coculture fibroblast: WS1 | 0.782 | 0.74406 | 0.6588 | 0.6506 | 0.606 | 0.5694 | 0.539 | 0.539 | 0.506
100 µM, coculture fibroblast: C12385 | 0.815 | 0.8286 | 0.822 | 0.8391 | 0.786 | 0.79 | 0.774 | 0.789 | 0.7684
100 µM, coculture fibroblast: H6013 | 0.9365 | 0.924 | 0.906 | 0.911 | 0.8926 | 0.876 | 0.875 | 0.8697 | 0.838
100 µM, coculture fibroblast: H6019 | 0.8705 | 0.864 | 0.881 | 0.8597 | 0.852 | 0.87 | 0.861 | 0.896 | 0.896
100 µM, coculture fibroblast: H6076 | 0.9266 | 0.924 | 0.9326 | 0.9224 | 0.9 | 0.868 | 0.866 | 0.873 | 0.875
100 µM, coculture fibroblast: H6231 | 0.977 | 0.895 | 0.946 | 0.937 | 0.893 | 0.873 | 0.857 | 0.835 | 0.805
100 µM, coculture fibroblast: HADF | 0.932 | 0.9382 | 0.935 | 0.929 | 0.924 | 0.899 | 0.893 | 0.8994 | 0.848
100 µM, coculture fibroblast: HCFa | 0.963 | 0.907 | 0.897 | 0.911 | 0.853 | 0.928 | 0.921 | 0.887 | 0.859
100 µM, coculture fibroblast: HCPF | 0.926 | 0.9024 | 0.8791 | 0.8655 | 0.835 | 0.81 | 0.788 | 0.759 | 0.745
100 µM, coculture fibroblast: HHSteC | 0.96 | 0.903 | 0.831 | 0.848 | 0.84 | 0.833 | 0.835 | 0.813 | 0.943
100 µM, coculture fibroblast: HMF | 0.9459 | 0.9374 | 0.9272 | 0.911 | 0.894 | 0.8662 | 0.846 | 0.83 | 0.814
100 µM, coculture fibroblast: HPFa | 0.9581 | 0.9737 | 0.9587 | 0.944 | 0.949 | 0.934 | 0.911 | 0.893 | 0.876
100 µM, coculture fibroblast: HUF | 0.95 | 0.91578 | 0.904 | 0.905 | 0.874 | 0.882 | 0.852 | 0.87 | 0.87
100 µM, coculture fibroblast: Hs5 | 0.918 | 0.92 | 0.922 | 0.908 | 0.901 | 0.868 | 0.867 | 0.852 | 0.841
100 µM, coculture fibroblast: Hs27A | 0.9431 | 0.951 | 0.94 | 0.949 | 0.947 | 0.924 | 0.8927 | 0.847 | 0.929
100 µM, coculture fibroblast: Hs343T | 0.9515 | 0.9416 | 0.9493 | 0.931 | 0.895 | 0.868 | 0.846 | 0.823 | 0.798
100 µM, coculture fibroblast: WS1 | 0.8433 | 0.824 | 0.853 | 0.803 | 0.793 | 0.793 | 0.784 | 0.8018 | 0.793

Values are relative to the signal before dosing, not to a vehicle control; the signal also falls without drug.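 Fibroblast labels denote human fibroblasts, mainly primary ones from uterus (C12385, HUF), lung (H6013), bone (Hs27A), adrenal (HADF) and skin (WS1), plus mammary HMF and breast cancer-associated Hs343T. Cancer cells are basal-like or mesenchymal-like triple-negative breast cancer lines. A hit is a response shift exceeding 3x replicate standard deviation. The tissue of the other fibroblasts is not given here.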
